Test results: publication PMC10750279
These are yes or no findings as the source states them, for the method shown. Binding seen in cells or lysates may run through a third protein. Some results given as binding are weak or reduced against the parent protein; the word gives no strength.

Amino acid sequences for entries named in this document (tags omitted).
UniProt Q05397: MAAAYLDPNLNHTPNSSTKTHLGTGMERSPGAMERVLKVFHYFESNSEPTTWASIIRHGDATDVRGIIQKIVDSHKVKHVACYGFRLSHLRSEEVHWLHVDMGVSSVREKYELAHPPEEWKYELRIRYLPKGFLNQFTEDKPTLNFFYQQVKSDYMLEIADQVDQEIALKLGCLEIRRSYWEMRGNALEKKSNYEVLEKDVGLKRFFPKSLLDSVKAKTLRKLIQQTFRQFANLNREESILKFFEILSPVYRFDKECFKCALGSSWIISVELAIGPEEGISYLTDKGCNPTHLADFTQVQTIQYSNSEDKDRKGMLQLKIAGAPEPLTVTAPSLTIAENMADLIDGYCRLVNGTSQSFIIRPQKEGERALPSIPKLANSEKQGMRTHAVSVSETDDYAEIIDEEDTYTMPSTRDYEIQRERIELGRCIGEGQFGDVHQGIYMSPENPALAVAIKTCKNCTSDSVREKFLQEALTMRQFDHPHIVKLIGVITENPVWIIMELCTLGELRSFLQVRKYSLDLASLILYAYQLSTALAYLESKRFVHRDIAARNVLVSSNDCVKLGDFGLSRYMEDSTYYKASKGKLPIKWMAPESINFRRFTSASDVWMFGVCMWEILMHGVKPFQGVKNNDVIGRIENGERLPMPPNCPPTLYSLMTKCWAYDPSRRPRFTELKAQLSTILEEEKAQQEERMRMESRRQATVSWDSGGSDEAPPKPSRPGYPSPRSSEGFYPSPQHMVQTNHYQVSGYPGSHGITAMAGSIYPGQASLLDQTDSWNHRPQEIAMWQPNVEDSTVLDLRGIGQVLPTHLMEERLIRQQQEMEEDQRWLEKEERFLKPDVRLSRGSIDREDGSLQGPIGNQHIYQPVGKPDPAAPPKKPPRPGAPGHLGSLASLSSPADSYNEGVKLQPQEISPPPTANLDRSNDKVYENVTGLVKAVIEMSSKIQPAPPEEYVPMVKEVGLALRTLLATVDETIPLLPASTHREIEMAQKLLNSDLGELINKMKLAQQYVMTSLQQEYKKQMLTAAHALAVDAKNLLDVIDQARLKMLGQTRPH

Molecular target: T1, TGFβRI (human (endogenous in HNSCC cell lines)) (UniProt P36897)
T1 sequence: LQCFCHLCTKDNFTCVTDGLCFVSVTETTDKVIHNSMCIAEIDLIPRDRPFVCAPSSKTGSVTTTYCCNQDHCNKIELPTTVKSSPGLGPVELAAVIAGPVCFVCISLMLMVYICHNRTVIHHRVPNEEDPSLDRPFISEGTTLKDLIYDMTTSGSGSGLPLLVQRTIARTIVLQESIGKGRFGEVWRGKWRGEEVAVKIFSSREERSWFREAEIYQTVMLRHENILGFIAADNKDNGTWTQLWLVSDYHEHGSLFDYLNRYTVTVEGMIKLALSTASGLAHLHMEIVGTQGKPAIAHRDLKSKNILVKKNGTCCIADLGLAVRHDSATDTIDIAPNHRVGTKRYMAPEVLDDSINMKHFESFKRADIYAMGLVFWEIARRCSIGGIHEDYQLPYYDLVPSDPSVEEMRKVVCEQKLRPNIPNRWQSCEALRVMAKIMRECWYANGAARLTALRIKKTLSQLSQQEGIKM
Test: co-IP; HNSCC cells lysed in radioimmunoprecipitation assay buffer; supernatants incubated with primary antibodies or IgG control at 4°C overnight, then magnetic beads 8 h, western blotting; cells untreated or with TNS4 depletion (shTNS4/siTNS4), TNS4 overexpression or FAK inhibitor

binding: binds
Substance: focal adhesion kinase (FAK) (from UniProt Q05397 1-1052) (enzyme)
